Data as given in PubChem BioAssay AID1259289 (Sanger Institute, 2017).
Shown is a random part of 794 deposited reagents. Over the whole deposit, 16 (2%) are marked active. 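Active marks cell loss from silencing alone; drug synergy shows only in the synergy scores, not the calls.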 Entries without a mark were called inactive. Further read-outs or replicates are left out here. The record does not give: the amount of reagent, the time to read-out.

- Aim: 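Kinase-wide silencing tested with three anchor drugs to reveal synergistic lethal pairs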 (primary screen)
- Cell system: human LS513 colorectal cancer cells
- Reagents: siRNA pool against human genes
- Challenge: anchor drug BYL719 at 1 µM, cetuximab at 5 µg/ml or trametinib at 10 nM, or DMSO vehicle alone; exposure time not given
- Measurement: 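Cell survival as a fraction of the non-targeting pool, replicate means; robust z-score for silencing alone under DMSO; synergy score for each of BYL719, cetuximab and trametinib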
- Scale: robust z-score, siRNA alone (DMSO): higher = more viable cells; strongly negative means essential
- Active means: 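a gene counts as active if its DMSO-only robust z-score falls under -3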
- Calls: active = essential (knock-down alone); inactive = not essential

target | robust z-score, siRNA alone (DMSO)
ITSN1 (intersectin 1) | -2.1
MYLK3 (myosin light chain kinase 3) | 0.561
TAOK1 (TAO kinase 1) | -0.0431
NEK1 (NIMA related kinase 1) | -0.0683
PDK1 (pyruvate dehydrogenase kinase 1) | 0.561
SIK1 (salt inducible kinase 1) | 0.561
TAF1 (TATA-box binding protein associated factor 1) | -0.249
INSRR (insulin receptor related receptor) | -0.983
TBK1 (TANK binding kinase 1) | 0.188
ARAF (A-Raf proto-oncogene, serine/threonine kinase) | 0.561
HIPK3 (homeodomain interacting protein kinase 3) | -0.232
NEK5 (NIMA related kinase 5) | 0.561
THNSL1 (threonine synthase like 1) | 0.561
WNK4 (WNK lysine deficient protein kinase 4) | 0.561
LIMK1 (LIM domain kinase 1) | 0.561
CREBBP (CREB binding lysine acetyltransferase) | -0.122
HUNK (hormonally up-regulated Neu-associated kinase) | -2.51
FGFRL1 (fibroblast growth factor receptor like 1) | 0.409
TSSK2 (testis specific serine kinase 2) | -2.13
PKDCC (protein kinase domain containing, cytoplasmic) | 0.561
MAPK15 (mitogen-activated protein kinase 15) | 0.561
DDR1 (discoidin domain receptor tyrosine kinase 1) | -0.884
STK17A (serine/threonine kinase 17a) | -2.31
PMVK (phosphomevalonate kinase) | 0.000103
PKM (pyruvate kinase M1/2) | 0.561
PEAK1 (pseudopodium enriched atypical kinase 1) | -0.552
SGK3 (serum/glucocorticoid regulated kinase family member 3) | 0.201
PTK7 (protein tyrosine kinase 7 (inactive)) | -1.59
STK3 (serine/threonine kinase 3) | 0.561
MAP3K10 (mitogen-activated protein kinase kinase kinase 10) | 0.561
MASTL (microtubule associated serine/threonine kinase like) | -3.73 (active)
EFNA3 (ephrin A3) | 0.561
CDK8 (cyclin dependent kinase 8) | 0.561
NEK10 (NIMA related kinase 10) | 0.00998
PCK2 (phosphoenolpyruvate carboxykinase 2, mitochondrial) | 0.561
MAPK11 (mitogen-activated protein kinase 11) | 0.561
TNNI3K (TNNI3 interacting kinase) | 0.561
RPS6KB1 (ribosomal protein S6 kinase B1) | -1.96
MED12 (mediator complex subunit 12) | 0.494
EPHA10 (EPH receptor A10) | -1.8
PACSIN1 (protein kinase C and casein kinase substrate in neurons 1) | 0.561
SPHK2 (sphingosine kinase 2) | 0.561
PIP5K1B (phosphatidylinositol-4-phosphate 5-kinase type 1 beta) | 0.561
ITPK1 (inositol-tetrakisphosphate 1-kinase) | 0.561
CTCF (CCCTC-binding factor) | -0.809
GOLGA5 (golgin A5) | 0.561
ERBB4 (erb-b2 receptor tyrosine kinase 4) | 0.561
PRKCQ (protein kinase C theta) | -0.0627
NADK (NAD kinase) | -0.101
CDK10 (cyclin dependent kinase 10) | 0.561
NTN4 (netrin 4) | 0.461
IKBKE (inhibitor of nuclear factor kappa B kinase subunit epsilon) | -0.716
CUL1 (cullin 1) | 0.561
PRKAB1 (protein kinase AMP-activated non-catalytic subunit beta 1) | -0.29
MARK1 (microtubule affinity regulating kinase 1) | -0.411
STRADA (STE20 related adaptor alpha) | -0.814
CDK7 (cyclin dependent kinase 7) | -0.0962
GUCY2C (guanylate cyclase 2C) | 0.561
GRK7 (G protein-coupled receptor kinase 7) | -0.737
CEP290 (centrosomal protein 290) | 0.561
MAPK12 (mitogen-activated protein kinase 12) | 0.561
UHMK1 (U2AF homology motif kinase 1) | 0.561
MAST4 | 0.561

Ordered by “robust z-score, siRNA alone (DMSO)” (lowest first): 10 of the entries above
target | robust z-score, siRNA alone (DMSO)
HUNK (hormonally up-regulated Neu-associated kinase) | -2.51
STK17A (serine/threonine kinase 17a) | -2.31
TSSK2 (testis specific serine kinase 2) | -2.13
DDR1 (discoidin domain receptor tyrosine kinase 1) | -0.884
CREBBP (CREB binding lysine acetyltransferase) | -0.122
PMVK (phosphomevalonate kinase) | 0.000103
FGFRL1 (fibroblast growth factor receptor like 1) | 0.409
PKDCC (protein kinase domain containing, cytoplasmic) | 0.561
MAPK15 (mitogen-activated protein kinase 15) | 0.561
PKM (pyruvate kinase M1/2) | 0.561
